# Measurements from the supplement of paper PMC11732987, “Enantioselective OTUD7B fragment discovery through chemoproteomics screening and high-throughput optimisation” (Communications Chemistry, 2025).
# Protein sequences, listed by entry. Tags and fused reporters are not part of them. Lines headed by an entry give the natural chain unless they say otherwise; changes in a name come on top. Residues count along the entry.
# UniProt Q9Y4C1, 233-256: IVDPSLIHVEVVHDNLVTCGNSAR
# UniProt O15037, 142-162: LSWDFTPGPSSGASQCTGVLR
# UniProt Q14643, whole entry, looked up: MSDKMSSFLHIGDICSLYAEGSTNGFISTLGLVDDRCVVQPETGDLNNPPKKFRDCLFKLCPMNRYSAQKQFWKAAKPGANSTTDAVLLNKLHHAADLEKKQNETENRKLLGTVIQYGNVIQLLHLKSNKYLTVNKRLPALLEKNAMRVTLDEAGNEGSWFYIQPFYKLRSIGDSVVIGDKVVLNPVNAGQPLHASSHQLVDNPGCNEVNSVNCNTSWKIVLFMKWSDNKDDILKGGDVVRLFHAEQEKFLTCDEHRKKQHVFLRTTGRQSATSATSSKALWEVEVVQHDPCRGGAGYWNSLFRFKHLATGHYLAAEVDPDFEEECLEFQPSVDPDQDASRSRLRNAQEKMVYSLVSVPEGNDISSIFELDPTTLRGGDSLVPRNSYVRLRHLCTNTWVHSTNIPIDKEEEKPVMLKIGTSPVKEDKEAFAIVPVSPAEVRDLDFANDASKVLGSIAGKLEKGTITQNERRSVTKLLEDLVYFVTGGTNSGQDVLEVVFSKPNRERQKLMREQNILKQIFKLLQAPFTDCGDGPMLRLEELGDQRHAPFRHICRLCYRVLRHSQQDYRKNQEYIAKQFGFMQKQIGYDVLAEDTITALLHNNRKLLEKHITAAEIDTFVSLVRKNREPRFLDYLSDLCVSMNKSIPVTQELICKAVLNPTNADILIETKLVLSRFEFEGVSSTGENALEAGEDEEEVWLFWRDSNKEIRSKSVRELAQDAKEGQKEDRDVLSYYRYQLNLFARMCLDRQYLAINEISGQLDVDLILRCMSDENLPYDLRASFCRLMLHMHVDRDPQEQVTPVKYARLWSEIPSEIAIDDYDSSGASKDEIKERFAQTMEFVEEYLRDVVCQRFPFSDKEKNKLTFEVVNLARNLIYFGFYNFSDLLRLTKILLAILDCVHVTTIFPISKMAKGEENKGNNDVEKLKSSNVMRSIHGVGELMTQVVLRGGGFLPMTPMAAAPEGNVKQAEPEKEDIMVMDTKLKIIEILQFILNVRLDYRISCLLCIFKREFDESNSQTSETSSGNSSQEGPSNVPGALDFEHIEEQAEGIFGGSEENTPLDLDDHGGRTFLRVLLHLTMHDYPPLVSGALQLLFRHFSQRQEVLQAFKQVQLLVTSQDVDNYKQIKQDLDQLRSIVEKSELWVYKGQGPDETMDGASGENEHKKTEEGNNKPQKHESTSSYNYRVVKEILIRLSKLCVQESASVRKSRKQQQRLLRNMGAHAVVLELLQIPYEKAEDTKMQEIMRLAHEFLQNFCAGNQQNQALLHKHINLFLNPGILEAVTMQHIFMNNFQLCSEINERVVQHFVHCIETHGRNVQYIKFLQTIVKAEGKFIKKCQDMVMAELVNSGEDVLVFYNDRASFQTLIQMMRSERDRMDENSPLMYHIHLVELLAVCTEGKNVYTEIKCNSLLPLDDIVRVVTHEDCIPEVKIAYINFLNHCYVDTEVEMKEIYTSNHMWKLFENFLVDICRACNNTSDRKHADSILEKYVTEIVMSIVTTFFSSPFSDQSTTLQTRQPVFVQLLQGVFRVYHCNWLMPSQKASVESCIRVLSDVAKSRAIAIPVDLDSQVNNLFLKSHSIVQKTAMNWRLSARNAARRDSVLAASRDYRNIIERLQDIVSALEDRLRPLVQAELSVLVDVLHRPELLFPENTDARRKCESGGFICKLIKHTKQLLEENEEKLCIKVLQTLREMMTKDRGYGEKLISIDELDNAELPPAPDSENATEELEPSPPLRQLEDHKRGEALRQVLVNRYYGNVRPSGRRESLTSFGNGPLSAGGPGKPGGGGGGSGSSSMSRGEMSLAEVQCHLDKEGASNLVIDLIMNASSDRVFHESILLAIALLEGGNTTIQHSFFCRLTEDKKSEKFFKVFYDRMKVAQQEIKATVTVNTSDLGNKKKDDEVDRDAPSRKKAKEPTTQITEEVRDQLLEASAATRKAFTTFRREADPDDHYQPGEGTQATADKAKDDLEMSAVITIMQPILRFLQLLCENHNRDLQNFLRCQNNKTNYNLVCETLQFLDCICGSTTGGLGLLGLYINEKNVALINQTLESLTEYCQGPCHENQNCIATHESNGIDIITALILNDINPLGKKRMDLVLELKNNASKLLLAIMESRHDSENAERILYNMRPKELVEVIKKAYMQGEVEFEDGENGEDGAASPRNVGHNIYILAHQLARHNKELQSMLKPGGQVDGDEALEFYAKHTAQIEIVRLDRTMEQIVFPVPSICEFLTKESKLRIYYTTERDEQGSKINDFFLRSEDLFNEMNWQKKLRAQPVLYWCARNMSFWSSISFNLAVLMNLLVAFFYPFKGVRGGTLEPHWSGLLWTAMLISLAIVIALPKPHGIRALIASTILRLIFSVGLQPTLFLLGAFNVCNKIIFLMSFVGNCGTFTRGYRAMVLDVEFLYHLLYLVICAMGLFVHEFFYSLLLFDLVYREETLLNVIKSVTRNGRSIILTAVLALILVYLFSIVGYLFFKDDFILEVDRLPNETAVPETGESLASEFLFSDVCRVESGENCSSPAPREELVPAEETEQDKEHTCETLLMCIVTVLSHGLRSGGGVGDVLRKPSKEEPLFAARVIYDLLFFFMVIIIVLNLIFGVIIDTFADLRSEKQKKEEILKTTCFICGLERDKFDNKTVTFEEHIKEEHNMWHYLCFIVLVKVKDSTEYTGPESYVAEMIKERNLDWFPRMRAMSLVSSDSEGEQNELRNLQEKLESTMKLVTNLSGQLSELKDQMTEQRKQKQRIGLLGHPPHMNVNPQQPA
# UniProt Q14571, whole entry, looked up: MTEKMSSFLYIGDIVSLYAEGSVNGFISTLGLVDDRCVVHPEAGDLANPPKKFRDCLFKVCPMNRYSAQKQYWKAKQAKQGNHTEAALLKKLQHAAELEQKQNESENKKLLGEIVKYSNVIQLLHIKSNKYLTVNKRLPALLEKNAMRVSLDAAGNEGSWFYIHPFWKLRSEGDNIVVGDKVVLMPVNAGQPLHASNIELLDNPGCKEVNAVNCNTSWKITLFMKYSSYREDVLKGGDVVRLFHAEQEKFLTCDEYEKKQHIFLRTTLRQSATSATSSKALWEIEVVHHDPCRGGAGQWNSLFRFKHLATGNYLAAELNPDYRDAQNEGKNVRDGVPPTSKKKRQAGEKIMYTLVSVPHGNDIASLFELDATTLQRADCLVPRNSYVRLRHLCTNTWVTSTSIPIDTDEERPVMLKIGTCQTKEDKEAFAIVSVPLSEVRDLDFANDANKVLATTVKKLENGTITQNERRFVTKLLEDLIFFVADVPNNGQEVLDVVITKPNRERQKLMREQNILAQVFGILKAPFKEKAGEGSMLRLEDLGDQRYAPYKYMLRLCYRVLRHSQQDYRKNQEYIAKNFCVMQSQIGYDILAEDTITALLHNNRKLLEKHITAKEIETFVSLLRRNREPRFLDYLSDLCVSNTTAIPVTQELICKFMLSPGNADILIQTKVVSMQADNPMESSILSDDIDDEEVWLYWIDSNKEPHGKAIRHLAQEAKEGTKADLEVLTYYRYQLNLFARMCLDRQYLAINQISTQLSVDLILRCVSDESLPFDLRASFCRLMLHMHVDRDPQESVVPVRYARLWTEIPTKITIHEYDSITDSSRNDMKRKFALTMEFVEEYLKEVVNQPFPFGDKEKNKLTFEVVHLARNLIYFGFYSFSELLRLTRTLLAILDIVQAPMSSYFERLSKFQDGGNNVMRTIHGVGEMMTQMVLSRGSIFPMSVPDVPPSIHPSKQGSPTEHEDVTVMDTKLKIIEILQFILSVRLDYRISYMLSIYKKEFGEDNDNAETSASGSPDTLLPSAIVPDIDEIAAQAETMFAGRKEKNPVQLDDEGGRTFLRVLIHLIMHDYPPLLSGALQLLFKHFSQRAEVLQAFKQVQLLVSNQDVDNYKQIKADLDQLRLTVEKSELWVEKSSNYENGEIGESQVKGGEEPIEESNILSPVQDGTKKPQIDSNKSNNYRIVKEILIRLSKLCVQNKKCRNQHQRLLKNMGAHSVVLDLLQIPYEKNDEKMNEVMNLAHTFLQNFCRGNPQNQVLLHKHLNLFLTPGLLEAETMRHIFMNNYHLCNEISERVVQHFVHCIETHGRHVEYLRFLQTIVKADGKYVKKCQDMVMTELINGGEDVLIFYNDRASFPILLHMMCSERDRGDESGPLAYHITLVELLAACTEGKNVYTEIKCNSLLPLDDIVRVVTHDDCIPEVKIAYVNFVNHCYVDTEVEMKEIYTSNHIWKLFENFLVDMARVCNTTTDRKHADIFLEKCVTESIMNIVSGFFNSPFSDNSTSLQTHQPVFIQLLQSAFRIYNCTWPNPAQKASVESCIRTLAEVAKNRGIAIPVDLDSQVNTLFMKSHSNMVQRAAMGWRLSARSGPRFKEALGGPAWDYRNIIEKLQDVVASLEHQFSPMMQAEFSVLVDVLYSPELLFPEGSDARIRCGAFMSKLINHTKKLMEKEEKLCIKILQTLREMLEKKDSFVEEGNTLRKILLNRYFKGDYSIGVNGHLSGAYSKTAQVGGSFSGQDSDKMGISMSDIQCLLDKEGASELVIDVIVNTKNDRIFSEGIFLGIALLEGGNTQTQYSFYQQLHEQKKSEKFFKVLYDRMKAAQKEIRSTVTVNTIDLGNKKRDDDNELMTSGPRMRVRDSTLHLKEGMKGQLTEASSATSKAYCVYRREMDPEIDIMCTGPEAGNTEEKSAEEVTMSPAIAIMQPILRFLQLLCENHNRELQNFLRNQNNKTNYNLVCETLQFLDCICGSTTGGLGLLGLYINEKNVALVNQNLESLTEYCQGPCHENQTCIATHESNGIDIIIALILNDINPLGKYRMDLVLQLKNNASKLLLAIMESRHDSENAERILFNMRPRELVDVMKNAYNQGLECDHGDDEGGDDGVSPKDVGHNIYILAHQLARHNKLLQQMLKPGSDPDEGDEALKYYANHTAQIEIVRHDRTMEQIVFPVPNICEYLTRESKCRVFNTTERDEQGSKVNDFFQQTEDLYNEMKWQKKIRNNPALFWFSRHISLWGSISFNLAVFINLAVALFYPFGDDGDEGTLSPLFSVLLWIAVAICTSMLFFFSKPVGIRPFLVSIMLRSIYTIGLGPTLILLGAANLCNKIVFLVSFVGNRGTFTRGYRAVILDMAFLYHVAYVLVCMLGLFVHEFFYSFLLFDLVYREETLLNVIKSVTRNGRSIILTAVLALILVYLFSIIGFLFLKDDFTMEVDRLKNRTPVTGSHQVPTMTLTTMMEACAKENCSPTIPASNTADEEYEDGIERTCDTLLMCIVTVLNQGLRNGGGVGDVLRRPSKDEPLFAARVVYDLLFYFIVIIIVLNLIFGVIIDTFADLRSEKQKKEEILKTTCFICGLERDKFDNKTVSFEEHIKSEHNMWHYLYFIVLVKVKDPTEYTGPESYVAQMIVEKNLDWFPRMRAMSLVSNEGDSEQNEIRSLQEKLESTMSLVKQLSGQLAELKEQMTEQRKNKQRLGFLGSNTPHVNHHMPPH
# UniProt Q9H910: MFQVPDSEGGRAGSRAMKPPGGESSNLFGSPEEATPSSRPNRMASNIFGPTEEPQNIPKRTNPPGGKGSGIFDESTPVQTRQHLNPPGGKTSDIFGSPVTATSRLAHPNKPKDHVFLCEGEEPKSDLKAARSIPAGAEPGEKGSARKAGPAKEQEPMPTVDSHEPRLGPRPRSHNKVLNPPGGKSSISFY
# UniProt Q9H1H9, 26-45: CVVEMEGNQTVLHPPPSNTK
# UniProt Q9P0J7: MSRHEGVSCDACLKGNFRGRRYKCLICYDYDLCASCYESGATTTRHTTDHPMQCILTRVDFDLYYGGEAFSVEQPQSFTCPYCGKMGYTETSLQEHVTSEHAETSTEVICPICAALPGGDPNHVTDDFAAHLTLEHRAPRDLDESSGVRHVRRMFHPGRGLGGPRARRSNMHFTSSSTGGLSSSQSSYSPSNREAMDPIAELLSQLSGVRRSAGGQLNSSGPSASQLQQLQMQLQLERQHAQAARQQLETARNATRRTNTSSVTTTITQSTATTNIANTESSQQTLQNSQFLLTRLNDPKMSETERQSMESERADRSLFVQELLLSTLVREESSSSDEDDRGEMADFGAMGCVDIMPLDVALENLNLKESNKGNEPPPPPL
# UniProt Q7L273: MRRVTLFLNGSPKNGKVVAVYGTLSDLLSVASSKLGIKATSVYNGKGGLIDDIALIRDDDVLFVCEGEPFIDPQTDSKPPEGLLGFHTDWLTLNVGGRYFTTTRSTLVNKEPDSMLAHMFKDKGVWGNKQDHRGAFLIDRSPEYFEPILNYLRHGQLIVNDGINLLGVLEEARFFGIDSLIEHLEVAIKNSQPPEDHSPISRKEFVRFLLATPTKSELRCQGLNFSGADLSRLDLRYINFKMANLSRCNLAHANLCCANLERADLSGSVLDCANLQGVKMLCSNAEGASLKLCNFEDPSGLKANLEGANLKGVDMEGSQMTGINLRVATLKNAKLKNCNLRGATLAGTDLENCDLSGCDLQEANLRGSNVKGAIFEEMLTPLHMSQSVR
# Some of the results follow. The data scatter; read single values as rough.
# Experiments:
# [1] = compound: ClCC(=O)N[C@@H]1CCCc2ccccc12; experiment: log2 mean competition ratio of IA-DTB cysteine labelling (DMSO/compound) (log2 ratio); higher = stronger cysteine engagement by compound; conditions: treatment time: 4 h, cell line lysate: HEK293T
# Procedure: (§1)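 IA-DTB competitive cysteine chemoproteomics in HEK293T RIPA lysate. Lysates were treated with compound 29 or 30 at 50 or 200 µM for 4 h, then IA-DTB (500 µM, 1 h), trypsin-digested, NeutrAvidin-enriched and analysed by diaPASEF. Competition ratio = intensity DMSO / intensity compound (n=4 treated, n=64 DMSO); binding: mean log2 CR ≥ 1 and p ≤ 0.05 plus QC filters. Target is the cysteine site.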
# [2] = compound: ClCC(=O)N[C@H]1CCCc2ccccc12; experiment: as above; conditions: treatment time: 4 h, cell line lysate: HEK293T
# Procedure: as §1
Target,log2 mean competition ratio ([1]; 50 µM),log2 mean competition ratio ([1]; 200 µM),log2 mean competition ratio ([2]; 50 µM),log2 mean competition ratio ([2]; 200 µM)
KDM3A C251 (UniProt Q9Y4C1),0.0386,0.276,-0.233,0.0465
KDM3A C467 (UniProt Q9Y4C1),-0.16,0.205,–,–
KHNYN C157 (UniProt O15037),0.409,1.09,0.225,1.03
KIAA0513 C125 (UniProt O60268),-0.0438,-0.0316,-0.413,0.0034
ITCH C871 (UniProt Q96J02),0.443,-0.111,0.507,-0.0564
ITPR1 C37 (UniProt Q14643),-0.182,-0.211,-0.148,-0.377
ITGA4 C861 (UniProt P13612),0.066,0.323,0.168,0.536
IVNS1ABP C143 (UniProt Q9Y6Y0),-0.1,-0.129,0.342,-0.0455
KDM2A C443 (UniProt Q9Y2K7),0.0329,0.335,0.0329,0.196
KIF23 C791 (UniProt Q02241),-0.0939,0.278,-0.124,0.194
ITPR2 C214 (UniProt Q14571),-0.175,-0.411,0.254,0.0881
KIF2C C455 (UniProt Q99661),0.159,0.203,0.213,0.307
KIF4A C965 (UniProt O95239),-0.378,-0.254,0.413,-0.0172
KIF15 C1335 (UniProt Q9NS87),-0.0335,-0.15,0.128,-0.272
KARS1 C496 (UniProt Q15046),-0.425,-0.421,0.0369,-0.326
KIAA1217 C726 (UniProt Q5T5P2),0.182,0.204,-0.0279,0.294
KIAA0754 C80 (UniProt O94854),0.0117,-0.0574,0.153,0.101
JPT2 C118 (UniProt Q9H910),0.308,0.0747,0.304,0.201
KIF23 C412 (UniProt Q02241),-0.465,-0.595,0.171,-0.537
KBTBD11 C537 (UniProt O94819),-0.343,-0.27,-0.0383,-0.0103
KHDC4 C280 (UniProt Q7Z7F0),-0.167,0.0647,-0.0796,0.182

Target,log2 mean competition ratio ([1]; 50 µM),log2 mean competition ratio ([1]; 200 µM),log2 mean competition ratio ([2]; 50 µM),log2 mean competition ratio ([2]; 200 µM)
KANSL1 C208 (UniProt Q7Z3B3),0.268,-0.277,0.145,-0.419
ITPR3 C1638 (UniProt Q14573),-0.0965,0.0414,0.145,0.0578
KAT8 C230 (UniProt Q9H7Z6),0.0664,0.409,0.0424,0.364
KDM2B C770 (UniProt Q8NHM5),-0.171,0.153,0.195,0.0851
KDM8 C7 (UniProt Q8N371),-0.243,-0.056,-0.647,-0.0954
KIF13A C26 (UniProt Q9H1H9),-0.0636,0.346,0.0992,0.0101
ITPR2 C253 (UniProt Q14571),0.0128,0.143,0.101,-0.124
KIAA1586 C281 (UniProt Q9HCI6),-0.259,-0.0325,0.0221,0.387
KCMF1 C54 (UniProt Q9P0J7),0.00443,0.252,-0.431,-0.246
KCTD9 C282 (UniProt Q7L273),-0.105,0.0665,-0.449,-0.14
KAT14 C478 (UniProt Q9H8E8),0.41,0.59,0.367,0.175
KIF13B C1529 (UniProt Q9NQT8),0.675,-0.456,0.117,-0.201
KDM3B C1392 (UniProt Q7LBC6),0.161,-0.103,0.0861,-0.228
KIAA1671 C882,0.0582,0.173,-0.028,0.357
KIF2C C344 (UniProt Q99661),0.129,-0.00861,0.0417,0.0851
ITPR1 C1197 (UniProt Q14643),0.0727,-0.0582,-0.626,0.065
ITPR1 C1545 (UniProt Q14643),-0.124,-0.0298,0.243,-0.0521
ITPR2 C1415 (UniProt Q14571),-0.194,-0.0451,-0.421,-0.131
ISOC2 C136 (UniProt Q96AB3),0.658,1.24,0.478,0.887
KIF18A C460,-0.0955,-0.0928,0.0366,-0.281

# Random excerpt: 3 records from the list, in no set order.
Target,log2 mean competition ratio ([1]; 50 µM),log2 mean competition ratio ([1]; 200 µM),log2 mean competition ratio ([2]; 50 µM),log2 mean competition ratio ([2]; 200 µM)
KIAA1671 C882,0.0582,0.173,-0.028,0.357
ITPR2 C253 (UniProt Q14571),0.0128,0.143,0.101,-0.124
KAT14 C478 (UniProt Q9H8E8),0.41,0.59,0.367,0.175
